Measured values published in PubChem BioAssay AID493014 (National Center for Advancing Translational Sciences (NCATS), 2011).
Hit rate of the full screen: of about 340,000 compounds, about 170 (0.05%) were called active. Inconclusive means that the source gave no clear call. Such entries were picked first, then a sample of the others. The call rests on the fitted dose curve; in most records, active means well fitted inhibition curve with a large enough effect in the signal ratio, with a control signal flat (not every such curve was filed as active); inconclusive means small, poorly fitted or top-dose-only effect, or effect the other way, or a change in a side signal; inactive means flat fitted curve, though single readings scatter; the % refers to the signal ratio. Where the call is inconclusive, the potency comes from a doubtful curve fit.

Assay: qHTS Assay to Find Inhibitors of Chronic Active B-Cell Receptor Signaling;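 on activity change, negative = inhibition: plate controls were basal doxycycline-induced cells for no effect and cells given 10 µM MG132 for full effect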
Details: ABC-DLBCL IkBa-CBG/CBR reporter, luminescence ratio (green luciferase fused to IkBa over red control in TMD8 lymphoma cells), 4 h; activity change, negative = inhibition: at 46.1 µM (top of the series)
Summary of the method: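 Concentration-response series (up to 46 uM) were applied to TMD8 dual-reporter cells for 4 h at 37C with doxycycline. Green/red ratio, after filter-overlap correction, defined %Activity; red signal alone was normalised to basal cells and zero luminescence.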
Potency means the concentration at half of the fitted maximal effect.

Row | Structure (SMILES) | Potency | activity change, negative = inhibition
1 | CCn1c(SCc2ccc(C(=O)OC)o2)nc2sc3c(c2c1=O)CCCC3 | inconclusive: 2.31 µM [falling, full curve] | 
2 | Cc1ccc(C)c(OCCn2cc(/C=C(\C#N)C(=O)NCc3cccs3)c3ccccc32)c1 |  | inconclusive: 0.82%
3 | O=C(NCc1ccncc1)Nc1ccccc1 |  | inactive
4 | O=C(CCSc1ccccc1)OCn1nnc2ccccc2c1=O |  | inactive
5 | CCOC(=O)c1c(N)sc2c(OCC)c(Br)ccc12 |  | inconclusive: 18.2%
6 | Cn1c(=O)n(Cc2ccccc2Br)c2ccccc21 |  | inconclusive: -11.8%
7 | O=C(N/N=C/c1ccc(N2CCCC2)c([N+](=O)[O-])c1)c1cccnc1 | inconclusive: 35.5 µM [falling, partial curve, poor fit] | 
8 | COc1cccc(COc2ccc3c(C)cc(=O)oc3c2)c1 |  | inconclusive: -0.418%
9 | CC(OC(=O)c1ccc(O)cc1)C(=O)Nc1ccc(Oc2ccccc2)cc1 (centres undefined) |  | inconclusive: -13.5%
10 | Cc1ccc2nc(N(CCCN(C)C)C(=O)c3cc4ccccc4oc3=O)sc2c1 | inconclusive: 0.731 µM [falling, full curve, poor fit] | 
11 | COc1cc(/C=N/NC(=O)c2ccc(CN3C(=O)c4cccc5cccc3c45)cc2)cc(OC)c1O | inconclusive: 17.8 µM [falling, partial curve, poor fit] | 
12 | CCOc1cc(/C=N/O)ccc1OCc1ccc(C)cc1 |  | inconclusive: 0.654%
13 | Cc1cc(NC(=O)CCCSc2nc(-c3ccco3)cc(C(F)(F)F)n2)no1 |  | inactive
14 | CC(C)CCNC(=O)C(c1ccco1)N(CCCO)C(=O)Cn1nnc(-c2ccc(F)cc2)n1 (centres undefined) |  | inactive
15 | COc1ccc(Cc2nnc(SC)[nH]c2=O)cc1 |  | inconclusive: 28.2%
16 | C=CC[C@@H](CC(=O)N[C@H](CO)Cc1ccccc1)C(=O)N[C@H](COC(=O)[C@@H](CC=C)CC(=O)OC(C)(C)C)Cc1c[nH]c2ccccc12 | inconclusive: 0.58 µM [rising, partial curve, poor fit] | 
17 | CCCCOc1ccc(OC(=O)Nc2cc(Cl)ccc2OC)cc1 |  | inconclusive: 13.3%
18 | N#CC1=C(N)n2c(s/c(=C\c3ccco3)c2=O)=C(C#N)C1c1ccco1 (centres undefined) |  | inconclusive: 3.8%
19 | O=C(CN1CCc2ccccc2C1)Nc1ccccc1C(=O)NC1CC1 |  | inconclusive: -1.95%
20 | CCOc1ccc(C(=O)NC(=S)Nc2ccc(NC(=O)CC)cc2)cc1[N+](=O)[O-] |  | inactive
21 | COc1ccc(Cn2c(CCC(=O)O)nc3cccnc32)cc1 |  | inactive

Retrieved one by one from above, three records:
Row | Structure (SMILES) | Potency | activity change, negative = inhibition
6 | Cn1c(=O)n(Cc2ccccc2Br)c2ccccc21 |  | inconclusive: -11.8%
15 | COc1ccc(Cc2nnc(SC)[nH]c2=O)cc1 |  | inconclusive: 28.2%
9 | CC(OC(=O)c1ccc(O)cc1)C(=O)Nc1ccc(Oc2ccccc2)cc1 (centres undefined) |  | inconclusive: -13.5%

Arranged by molecular weight (high to low): three of the compounds above.
Row | Structure (SMILES) | Potency | activity change, negative = inhibition
18 | N#CC1=C(N)n2c(s/c(=C\c3ccco3)c2=O)=C(C#N)C1c1ccco1 (centres undefined) |  | inconclusive: 3.8%
6 | Cn1c(=O)n(Cc2ccccc2Br)c2ccccc21 |  | inconclusive: -11.8%
15 | COc1ccc(Cc2nnc(SC)[nH]c2=O)cc1 |  | inconclusive: 28.2%

The list continues:

Row | Structure (SMILES) | Potency | activity change, negative = inhibition
22 | COc1ccc(NC(=O)CN(C)CC(=O)Nc2ccccc2SC)cc1 |  | inactive
23 | COc1ccccc1C(=O)O/N=C(\N)c1ccccn1 |  | inconclusive: 237%
24 | CCC(C)(C(=O)NC1CCCC1)N(C)C(=O)c1ccccn1 (centres undefined) |  | inconclusive: 1.11%
25 | O=C(CSc1nc(-c2ccc(Cl)cc2)[nH]c(=O)n1)Nc1cccc(Cl)c1 |  | inactive
26 | Nc1[nH][nH]c(=O)c1N=Nc1ccc2c(c1)OCO2 | inconclusive: 22.4 µM [falling, single point] | 
27 | COc1ccc(Cc2nnc(NC(=O)Nc3ccc(C)cc3)s2)cc1OC |  | inconclusive: 7.18%
28 | O=C1C(=O)N(Cc2ccncc2)C(c2ccccc2F)/C1=C(\O)c1ccc2c(c1)OCCO2 (centres undefined) |  | inactive
29 | CCOC(=O)CC1(CC(=O)OCC)NC(=O)c2c(C)sc(C(=O)OCC)c2N1 |  | inconclusive: 2.41%
30 | CCOc1nc(N=C(N)N)nc2c(C)cccc12 |  | inconclusive: 8.07%
31 | CCc1nc2ccc(Cc3ccc4nc(CC)[nH]c4c3)cc2[nH]1 | inconclusive: 15.8 µM [falling, partial curve, poor fit] | 
32 | COc1c(C)cc(S(=O)(=O)N2CCOCC2)c(C)c1C |  | inactive
33 | CCCN=Cc1sc2ccc(OCC)cc2c1O |  | inconclusive: -13.5%
34 | FC(F)(F)c1ccc(NCCc2ccccc2)nc1 |  | inconclusive: 13.8%
35 | CCOC(=O)c1c(NC(=S)N2CCOCC2)sc2c1CCN(C(=O)OCC)C2 | inconclusive: 22.4 µM [falling, single point] | 
36 | Cc1ccc(C(=O)CCC(=O)Nc2ccccc2C)cc1C | inconclusive: 17.8 µM [falling, single point] | 
37 | Cc1cccc(C)c1NC(=O)NNC(=O)c1cc(C(C)(C)C)nn1Cc1ccccc1 |  | inconclusive: -3.18%
38 | COc1cc(N2CN=c3s/c(=C\c4ccccn4)c(=O)n3C2)cc(OC)c1OC |  | inconclusive: -1.77%
39 | N#C/C(=C\c1ccc(OCc2ccc(C(=O)O)cc2)cc1)C(=O)NCc1ccccc1 |  | inactive
40 | O=S(=O)(NCCc1csc2nc(-c3ccc(F)cc3)nn12)c1ccc2c(c1)OCCO2 |  | inconclusive: 11.6%
41 | Nc1nonc1-c1nc2ccccc2n1CC(=O)N1CCCCC1 |  | inconclusive: 2.41%
42 | O=C(NCCC1CCCCN1S(=O)(=O)c1ccc(F)cc1)C(=O)Nc1ccccc1F (centres undefined) |  | inconclusive: 21.2%

Row | Structure (SMILES) | Potency | activity change, negative = inhibition
43 | CSc1nc(C)cc(OCC(=O)N/N=C/c2ccccc2O)n1 | inconclusive: 8.2 µM [falling, partial curve] | 
44 | Cc1cc(C)nc(NC(=O)Cc2ccc([N+](=O)[O-])cc2)c1 |  | inconclusive: 1.37%
45 | CCCCNC(=O)c1cc(-c2ccc(F)cc2)on1 | inconclusive: 25.9 µM [rising, single point] | 
46 | CS(=O)(=O)c1cccc(C(=O)Nc2ccc(-c3nc4ccccc4[nH]3)cc2)c1 |  | inconclusive: -2.32%
47 | CCCCn1c(SCC(=O)Nc2cc(C)on2)nnc1-c1cccs1 |  | inconclusive: -5.9%
48 | C=CCNc1nc(C(=O)OCC(=O)NCc2cccc(Cl)c2)cs1 |  | inconclusive: 2.06%
49 | COc1cc(C)nc(OCCNC(=O)COc2ccc(Cl)cc2Cl)n1 |  | inconclusive: -2.82%
50 | CCN1C(=O)[C@H]2[C@H]3CN=C(SCc4ccccc4)N3[C@@](Cc3ccccc3)(C(=O)OC)[C@H]2C1=O |  | inconclusive: -17%
51 | COc1ccccc1NCCC(=O)OCC(=O)Nc1ccccc1Cl |  | inconclusive: -6.76%
52 | COc1ccc(-n2ncc(Cl)c(Cl)c2=O)cc1 |  | inconclusive: -1.79%
53 | O=C(NCc1ccccc1)C1=C[C@@H](c2ccc(Br)cc2)C[C@@H](OCCCCO)O1 |  | inconclusive: 12.1%
54 | CC(C)Cn1nc(NC(=O)c2cccs2)c2cc3ccccc3nc21 |  | inconclusive: 20.5%
55 | COc1ccc(S(=O)(=O)Nc2ccc(-n3cnnn3)cc2)cc1[N+](=O)[O-] |  | inactive
56 | Cc1ccc(SCC(=O)NCCSC(C)(C)C)cc1 |  | inactive
57 | Fc1ccc2[nH]c3c(N4CCN(C5CCCCC5)CC4)ncnc3c2c1 |  | inactive
58 | CC(C)CNS(=O)(=O)c1ccc(CCC(=O)N2CCN(c3ccc(F)cc3)CC2)cc1 |  | inconclusive: -14.9%
59 | COc1ccc(Nc2nnc(SCC3CCCCO3)s2)cc1 (centres undefined) |  | inconclusive: 16.4%
60 | CCn1ncc(-c2ccnc3cc(C(=O)O)nn23)c1C |  | inactive
61 | CC(=O)c1c(C)[nH]c(C(=O)CSc2nnc(-c3ccco3)n2Cc2ccccc2)c1C |  | inconclusive: 0.0225%
62 | CCCOc1ccc(C(=O)NCCC(=O)NCCCC(=O)O)cc1 |  | inconclusive: 8.13%
63 | COc1ccc2cc1Oc1ccc(cc1)C[C@H]1c3c(cc4c(c3Oc3cc5c(cc3OC)CCN(C)[C@@H]5C2)OCO4)CCN1C |  | inactive

Row | Structure (SMILES) | Potency | activity change, negative = inhibition
64 | N#Cc1nc(-c2ccco2)oc1N1CCc2ccccc2C1 |  | inconclusive: 8.91%
65 | Cn1c(-c2sccc2OCc2ccccc2)n[nH]c1=S | inconclusive: 35.5 µM [falling, single point] | 
66 | O=C(NCCc1ccc(Cl)cc1)C1CCC(=O)N1Cc1ccc(F)cc1 (centres undefined) |  | inconclusive: -2.37%
67 | O=C(NCc1ccco1)C1CCCN(c2nnc(-n3cccc3)s2)C1 (centres undefined) |  | inactive
68 | Cc1ccnc(SCc2ccc([N+](=O)[O-])cc2)n1 |  | inconclusive: -8.2%
69 | Cc1ccc(N)c([N+](=O)[O-])c1 |  | inactive
70 | CN=c1scc(-c2cc(OC)ccc2OC)n1/N=C/c1c(C)[nH]c2ccccc12 |  | inconclusive: 4.62%
71 | Cc1ccccc1OCC(=O)N/N=C/c1ccc([N+](=O)[O-])o1 |  | inconclusive: -0.998%
72 | COCCCn1c(=O)c2sccc2n(Cc2cccc(C)c2)c1=O |  | inactive
73 | CCC1(CC)NC(=O)N(CC(=O)OCC(=O)Nc2ccc(F)c(F)c2F)C1=O |  | inconclusive: 1.13%
74 | CCCc1nc2ccccc2c(=O)n1/N=C/c1ccccc1O |  | inconclusive: -18%
75 | CCNc1nc(Oc2ccc(=O)n(-c3ccccc3)n2)nc(N2CCOCC2)n1 | inconclusive: 9.2 µM [falling, partial curve, poor fit] | 
76 | Cc1cc(=O)n2[nH]c(COc3ccccc3)nc2n1 | inconclusive: 6.51 µM [falling, single point] | 
77 | Cc1cccc(NC(=O)/C(=C\c2ccc([N+](=O)[O-])o2)NC(=O)c2ccc(Cl)cc2)c1 |  | inconclusive: -1.38%
78 | O=C(NC(=S)NCC1CCCO1)c1ccccc1[N+](=O)[O-] (centres undefined) | inconclusive: 35.5 µM [falling, single point] | 
79 | O=C(CCc1ccccc1)NC(NC(=S)Nc1ccc(Br)cc1)C(Cl)(Cl)Cl (centres undefined) | inconclusive: 20.6 µM [rising, single point] | 
80 | CCOC(=O)N1CCN(C/C(Cl)=C/c2ccccc2)CC1 |  | inactive
81 | Cc1onc(-c2c(F)cccc2Cl)c1C(=O)OCC(=O)c1c[nH]c2ccccc12 |  | inconclusive: 3.45%
82 | CC(C)N1CC(C(=O)Nc2cc(Cl)cc(Cl)c2)CC1=O (centres undefined) |  | inactive
83 | O=C(/C=C/c1cccc([N+](=O)[O-])c1)N1CCOCC1 |  | inconclusive: 5.03%
84 | COC(=O)c1c(NC(=O)CCCC(=O)O)sc2c1CCCCC2 |  | inconclusive: -19.3%
